1 substance from PMC7359353, “Rab27a co-ordinates actin-dependent transport by controlling organelle-associated motors and track assembly proteins” (Nature Communications, 2020) can be followed below.

Protein sequences, listed by entry. Tags and fused reporters are not part of them. Lines headed by an entry give the natural chain unless they say otherwise; changes in a name come on top. Chains listed by the source or under a name are the forms on record and can include a tag or linker.
GFP-SPIRE1 (human) (Q08AE8-2, form named): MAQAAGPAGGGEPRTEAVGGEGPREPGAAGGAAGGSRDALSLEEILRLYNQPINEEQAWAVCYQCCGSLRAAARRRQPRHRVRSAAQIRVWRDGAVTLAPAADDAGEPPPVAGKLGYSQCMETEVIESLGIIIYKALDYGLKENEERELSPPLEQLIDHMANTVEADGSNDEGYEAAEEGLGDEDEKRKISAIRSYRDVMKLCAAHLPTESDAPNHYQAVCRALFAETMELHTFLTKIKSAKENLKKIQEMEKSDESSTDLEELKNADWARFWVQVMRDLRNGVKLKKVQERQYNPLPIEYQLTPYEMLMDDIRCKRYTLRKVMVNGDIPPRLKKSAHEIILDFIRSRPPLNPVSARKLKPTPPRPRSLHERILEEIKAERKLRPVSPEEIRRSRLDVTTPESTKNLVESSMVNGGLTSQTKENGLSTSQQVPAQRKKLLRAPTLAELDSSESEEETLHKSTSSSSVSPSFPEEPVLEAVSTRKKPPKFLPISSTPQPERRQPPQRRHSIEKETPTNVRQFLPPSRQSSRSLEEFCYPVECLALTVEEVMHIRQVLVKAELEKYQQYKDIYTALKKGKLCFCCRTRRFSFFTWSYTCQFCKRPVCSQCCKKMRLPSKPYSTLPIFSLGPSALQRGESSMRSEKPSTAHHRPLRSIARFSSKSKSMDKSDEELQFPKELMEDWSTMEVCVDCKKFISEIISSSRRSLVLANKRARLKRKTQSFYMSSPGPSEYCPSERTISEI

Results are given in words; binding and its absence hold for the method and conditions named. In cells and extracts the contact can be indirect. A yes stands for co-enrichment or nearness to the bait. Other partners may have been found.

The experiment concerns the target T1, endogenous Rab27a (mouse (endogenous in B16-F1)) (UniProt Q9ERI2).
T1 sequence: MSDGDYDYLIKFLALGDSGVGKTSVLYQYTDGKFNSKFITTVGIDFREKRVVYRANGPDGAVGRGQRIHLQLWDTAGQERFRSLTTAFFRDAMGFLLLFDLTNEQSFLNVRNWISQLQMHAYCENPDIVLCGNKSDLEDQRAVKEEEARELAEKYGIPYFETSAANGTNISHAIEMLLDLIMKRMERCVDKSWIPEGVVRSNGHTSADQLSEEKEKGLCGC
Put plainly: affinity purification with mass spectrometry; endogenous Rab27a immunoprecipitated with goat anti-Rab27a antibodies on protein A/G resin from lysates of B16-F1 cells expressing GFP-hsSPIRE1; 20 mM Tris-HCl pH 7.5, 50 mM NaCl, 1 mM EGTA, 1% CHAPS, 1 mM GTP; overnight at 4 °C; co-precipitating proteins identified by mass spectrometry.

As to “GFP-SPIRE1 (human) (from UniProt Q08AE8-2 1-742)”, the binding entry is given as “binds”.
